The values below come from paper PMC7862700.

Chains of the proteins cited; added tags and fusions are not shown. Lines headed by an entry give the natural chain unless they say otherwise; changes in a name come on top.
UniProt P41212: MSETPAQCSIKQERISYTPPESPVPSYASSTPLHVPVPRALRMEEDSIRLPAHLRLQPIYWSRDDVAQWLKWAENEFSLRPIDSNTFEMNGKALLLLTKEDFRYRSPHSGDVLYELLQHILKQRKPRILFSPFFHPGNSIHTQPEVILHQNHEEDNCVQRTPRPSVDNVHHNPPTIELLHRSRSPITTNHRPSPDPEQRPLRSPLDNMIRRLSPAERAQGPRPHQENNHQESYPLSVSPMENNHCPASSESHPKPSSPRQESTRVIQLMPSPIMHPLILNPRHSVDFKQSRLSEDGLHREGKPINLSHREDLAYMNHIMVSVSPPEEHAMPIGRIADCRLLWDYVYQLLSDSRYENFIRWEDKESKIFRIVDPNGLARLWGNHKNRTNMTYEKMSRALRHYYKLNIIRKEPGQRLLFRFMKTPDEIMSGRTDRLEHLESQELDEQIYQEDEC
UniProt Q9Y603: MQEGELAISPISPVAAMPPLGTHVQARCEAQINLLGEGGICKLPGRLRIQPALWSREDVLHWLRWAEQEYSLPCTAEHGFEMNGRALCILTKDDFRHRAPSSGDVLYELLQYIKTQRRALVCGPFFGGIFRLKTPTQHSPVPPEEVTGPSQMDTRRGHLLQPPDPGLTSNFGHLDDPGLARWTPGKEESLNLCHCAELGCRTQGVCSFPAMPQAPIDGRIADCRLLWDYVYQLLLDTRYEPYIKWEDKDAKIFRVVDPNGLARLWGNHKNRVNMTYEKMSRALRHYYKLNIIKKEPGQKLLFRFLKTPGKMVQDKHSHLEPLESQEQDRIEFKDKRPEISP

Test in all cases: DAPPL (digital affinity profiling via proximity ligation, sequencing)
Holding throughout (conditions): 10 mM Tris-HCl pH 7.5, 50 mM NaCl, 1 mM DTT, 4% glycerol, room temperature, 30 min; GST-TFs on glutathione beads, 16-mer random dsDNA library, 0.1% …; high values mean tight binding; double strand, one strand shown; scale: fold enrichment (6-mer frequency, TF over GST control)

The target in one experiment is T1, ELF3 (UniProt P78545).
T1 sequence: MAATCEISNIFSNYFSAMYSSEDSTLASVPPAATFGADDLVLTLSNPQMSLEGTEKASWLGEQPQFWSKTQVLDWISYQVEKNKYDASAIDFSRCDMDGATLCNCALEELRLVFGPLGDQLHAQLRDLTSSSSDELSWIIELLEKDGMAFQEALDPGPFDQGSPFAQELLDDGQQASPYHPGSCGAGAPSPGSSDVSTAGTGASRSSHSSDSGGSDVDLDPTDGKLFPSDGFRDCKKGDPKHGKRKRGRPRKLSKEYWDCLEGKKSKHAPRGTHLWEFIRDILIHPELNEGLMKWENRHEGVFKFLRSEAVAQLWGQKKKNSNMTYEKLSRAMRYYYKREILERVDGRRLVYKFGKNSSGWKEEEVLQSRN

The target of a further experiment is ETV6 (UniProt P41212).
In the next experiment the target is ETV7 (UniProt Q9Y603).

The entries are a selection whose mix differs from that of the whole data set. At the low end of the ranking, values are background and their order means little.

On to CCTGTA, for which the values for the binding signal with ELF3 and with ETV6 were 1.09 and 1.18, respectively.
Turning to GACTGC, the values for the binding signal with ELF3, in the experiment with ETV7 and with ETV6 were 0.793, 0.967 and 0.897, respectively.
For the sequence TAGCAG, the binding signal with ELF3 was found to be 0.945; with ETV6 it was 0.995.
As to CAATAC, the binding signal with ELF3 was found to be 1.29; with ETV6, 1.22.
As for CAGCCT, the binding signal with ELF3 came to 0.953; with ETV6 it was 0.847.
With CGACGG, the values for the binding signal with ELF3 and with ETV6 were 0.931 and 1.03, respectively.
With AGCCCA, the binding signal with ELF3 worked out at 1.04; with ETV7 it was 0.862; in the experiment with ETV6, 0.856.
For CATACA, the binding signal with ELF3 amounted to 0.984; with ETV6 it was 1.01.
As to ATAGGG, the values for the binding signal in the experiment with ELF3 and with ETV6 were 0.988 and 0.93, respectively.
For the sequence TCGATA, the values for the binding signal with ELF3 and in the experiment with ETV6 were 0.998 and 1.01, respectively.
GGTATG: the binding signal with ELF3 is 0.948; with ETV6 it was 0.887.
In the case of CAGTAT, the binding signal in the experiment with ELF3 was determined as 1.1; with ETV7 it was 0.933; in the experiment with ETV6, 0.903.
For the sequence GTTGAT, the binding signal with ELF3 was 0.975; in the experiment with ETV7, 0.951; with ETV6, 0.966.
Turning to GTTGCC, the binding signal was determined as 0.781 with ELF3 and 0.968 in the experiment with ETV6.
For the sequence GGCCTG, the figures for the binding signal with ELF3 and with ETV6 were 0.879 and 0.875, respectively.
With GTTGTC, the results for the binding signal in the experiment with ELF3, with ETV7 and with ETV6 were 0.797, 0.835 and 0.836, respectively.
As for CGCGTA, the binding signal amounted to 0.976 in the experiment with ELF3 and 1.01 with ETV6.
AGTACT: the binding signal amounted to 1.29 with ELF3 and 1.62 in the experiment with ETV6.
CATAGT: the binding signal with ELF3 came out at 1.07; with ETV6, 0.968.
The matching figures for GGTAAC: 0.947 and 1.04.
Consider ACTCGA, for which the figures for the binding signal in the experiment with ELF3 and with ETV6 were 0.96 and 1.27, respectively.
For the sequence GCGTCA, the results for the binding signal with ELF3, with ETV7 and with ETV6 were 0.894, 0.942 and 0.968, respectively.
In the case of TCGTCT, the binding signal with ELF3 was 1.52; with ETV6 it was 1.34.
Turning to TAAGGA, the binding signal was 0.963 in the experiment with ELF3, 0.831 with ETV7 and 0.824 with ETV6.
In the case of GTACAG, the results for the binding signal in the experiment with ELF3, with ETV7 and with ETV6 were 0.841, 1.06 and 0.985, respectively.
The matching figures for AGGATA: 0.987, 0.916 and 0.988.
For the sequence CCCAGA, the figures for the binding signal with ELF3, with ETV7 and with ETV6 were 0.878, 0.877 and 0.873, respectively.
Take GGCTTG: the binding signal turned out to be 1.11 with ELF3 and 0.9 with ETV6.
As to GGATTA, the binding signal in the experiment with ELF3 is 0.739; with ETV7, 0.929; with ETV6 it was 0.908.
On to TTAGGC, for which the binding signal with ELF3 came to 0.989; with ETV6, 0.887.
As to CTCCGT, the figures for the binding signal with ELF3 and in the experiment with ETV6 were 1.13 and 1.16, respectively.
As to GCGAAA, the figures for the binding signal with ELF3 and with ETV6 were 0.953 and 0.931, respectively.
GGATTC: the values for the binding signal in the experiment with ELF3, with ETV7 and in the experiment with ETV6 were 0.898, 0.9 and 0.903, respectively.
Consider TCCTAG, for which the values for the binding signal in the experiment with ELF3 and with ETV6 were 1.2 and 1.26, respectively.
Regarding ACGCGA, the binding signal with ELF3 was found to be 0.834; with ETV7, 0.909; with ETV6, 0.88.
GGCTGC: the figures for the binding signal with ELF3 and with ETV6 were 0.755 and 0.89, respectively.
For ATAACA the same measures were 1.21 and 1.26.
For the sequence ATCGCA, the binding signal with ELF3 amounted to 0.965; with ETV6 it was 0.974.
The matching figures for CAAAGT: 0.822 and 0.897.
On to TCGGCT, for which the binding signal in the experiment with ELF3 came out at 0.917; with ETV6, 0.936.
As to TTTTTT, the binding signal with ELF3 worked out at 1.33; with ETV6, 1.11.
For the sequence ATGCGT, the figures for the binding signal with ELF3 and with ETV6 were 1.07 and 0.979, respectively.
GAAAGT: the binding signal with ELF3 is 0.888; in the experiment with ETV6, 0.853.
The matching figures for CGCTGG: 0.967 and 0.972.
As for TATGAT, the binding signal was 1.09 in the experiment with ELF3 and 1.17 with ETV6.
With GCGACA, the binding signal with ELF3 is 0.963; with ETV6, 1.04.
Turning to CGGCTG, the values for the binding signal in the experiment with ELF3 and with ETV6 were 0.921 and 0.939, respectively.
Take ACGCCG: the binding signal with ELF3 worked out at 1.15; with ETV6, 1.14.
As for CAGCAT, the binding signal with ELF3 came to 1.07; with ETV6, 0.939.
For GTTGTA the same measures were 1.04 and 0.983.
On to GCCTAG, for which the binding signal with ELF3 amounted to 0.841; with ETV6, 0.875.
GCTAAC: the binding signal is 0.982 with ELF3 and 0.948 in the experiment with ETV6.
Regarding GTAGCT, the results for the binding signal in the experiment with ELF3 and with ETV6 were 1.18 and 1.06, respectively.
For TCATGA, the figures for the binding signal with ELF3 and with ETV6 were 1 and 0.995, respectively.
Take AGTGAC: the binding signal in the experiment with ELF3 stood at 0.929; with ETV6 it was 1.11.
For the sequence TGAAGA, the binding signal with ELF3 is 0.953; with ETV6 it was 0.919.
For ACTGGA the same measures were 1.1 and 0.982.
Regarding CGCACG, the binding signal with ELF3 was 0.939; in the experiment with ETV6, 1.08.
In the case of TCTAGA, the binding signal is 0.959 in the experiment with ELF3 and 0.971 with ETV6.
In the case of GCCCGG, the results for the binding signal with ELF3 and with ETV6 were 0.894 and 0.88, respectively.
For ATTGGT the same measures were 1.14 and 1.13.
GCGCGC: the binding signal was determined as 1.05 with ELF3 and 1.03 in the experiment with ETV6.
Regarding CGCGAA, the values for the binding signal with ELF3 and with ETV6 were 0.897 and 0.952, respectively.
Regarding GCGTTG, the binding signal in the experiment with ELF3 came out at 0.949; with ETV6, 0.896.
For CGGCCT the same measures were 1.03 and 0.96.
The matching figures for GGACTT: 1.06 and 1.13.
With AATCCT, the values for the binding signal with ELF3 and with ETV6 were 1.25 and 1.29, respectively.
In the case of TTGGCT, the binding signal with ELF3 is 0.956; with ETV6, 1.13.
For the sequence TGCAGC, the binding signal was 0.958 with ELF3 and 0.968 with ETV6.
For the sequence ACACCG, the binding signal in the experiment with ELF3 is 0.987; with ETV6, 0.984.
For TCAACG the same measures were 0.996 and 0.974.
Turning to TAAGCC, the binding signal with ELF3 came out at 0.976; with ETV6 it was 1.03.
In the case of ACCCCA, the binding signal in the experiment with ELF3 turned out to be 1.04; in the experiment with ETV6, 1.02.
In the case of CTATCC, the binding signal in the experiment with ELF3 turned out to be 1.31; in the experiment with ETV6 it was 1.32.
Turning to TAACGC, the binding signal with ELF3 and with ETV6 was 1.17 throughout.
With GTCTAT, the values for the binding signal with ELF3 and in the experiment with ETV6 were 1.12 and 1.03, respectively.
For CGTTGG the same measures were 0.789 and 0.86.
As for ACAAAG, the results for the binding signal with ELF3 and with ETV6 were 0.912 and 0.961, respectively.
Regarding GCGAAC, the values for the binding signal with ELF3 and in the experiment with ETV6 were 0.845 and 0.917, respectively.
For the sequence AACGAT, the binding signal worked out at 1.08 in the experiment with ELF3 and 1.25 with ETV6.
Turning to GTAAAT, the binding signal came to 1.25 in the experiment with ELF3 and 1.18 with ETV6.
ATTGGG: the values for the binding signal with ELF3 and with ETV6 were 1.22 and 1.16, respectively.
For ACGACG the same measures were 1.17 and 1.2.
Regarding TGATAA, the binding signal with ELF3 amounted to 0.792; in the experiment with ETV6, 0.934.
Consider TAGGCA, for which the results for the binding signal in the experiment with ELF3 and with ETV6 were 1 and 0.926, respectively.
For the sequence GCAGCC, the binding signal with ELF3 is 0.992; in the experiment with ETV6, 0.851.
The matching figures for ACCTGT: 0.853 and 0.959.
For CGCTTG the same measures were 1.2 and 1.11.
On to AGTTGC, for which the binding signal with ELF3 was 0.831; with ETV6, 1.03.
As for GTCACT, the figures for the binding signal with ELF3 and in the experiment with ETV6 were 1.26 and 0.972, respectively.
Consider CTGATG, for which the binding signal with ELF3 came to 1.65; in the experiment with ETV6, 1.72.
For the sequence TCTGGC, the binding signal with ELF3 is 1.03; in the experiment with ETV6 it was 1.19.
For AAGCCG, the binding signal with ELF3 was 0.935; with ETV6, 0.916.
For CACCCA, the binding signal with ELF3 came out at 1.14; with ETV6, 0.993.
The matching figures for TTCGAT: 1.42 and 1.14.
The matching figures for GCATTT: 1.33 and 1.39.
The matching figures for TAAGCA: 0.958 and 0.986.
Regarding GCTCCC, the binding signal was found to be 1.35 with ELF3 and 1.25 in the experiment with ETV6.
Turning to TAGCGT, the figures for the binding signal in the experiment with ELF3 and with ETV6 were 0.833 and 0.919, respectively.
For TGGAAG, the binding signal turned out to be 0.892 in the experiment with ELF3 and 1.19 with ETV6.
Turning to TCCCAG, the binding signal with ELF3 was determined as 1.14; with ETV6 it was 0.996.
As to TGCGGT, the binding signal was found to be 0.977 with ELF3 and 1.03 with ETV6.
With TCTTAT, the binding signal turned out to be 1.36 in the experiment with ELF3 and 1.3 with ETV6.
For TGGTGC, the values for the binding signal in the experiment with ELF3 and with ETV6 were 0.907 and 0.987, respectively.
Consider ATAATA, for which the binding signal with ELF3 amounted to 1.15; in the experiment with ETV6 it was 1.2.
Take GGTGGT: the binding signal with ELF3 amounted to 0.847; with ETV6 it was 0.91.
As to TCGCAT, the binding signal with ELF3 stood at 0.981; in the experiment with ETV6, 0.989.
The matching figures for TATACA: 1.43 and 1.25.
The matching figures for CATTGA: 0.843 and 0.927.
On to TACTCC, for which the results for the binding signal with ELF3 and with ETV6 were 1.11 and 1.23, respectively.
AACAGA: the results for the binding signal with ELF3 and in the experiment with ETV6 were 0.949 and 0.941, respectively.
For the sequence CATGGG, the binding signal with ELF3 amounted to 0.994; in the experiment with ETV6, 1.01.
The matching figures for AGATGA: 0.959 and 1.13.
Turning to CAACTC, the binding signal in the experiment with ELF3 amounted to 1.24; with ETV6 it was 1.29.
For AACTAT the same measures were 1.26 and 1.33.
Take ACCCTG: the binding signal with ELF3 turned out to be 0.914; with ETV6, 1.07.
Turning to CACATC, the binding signal in the experiment with ELF3 is 1.34; with ETV6, 1.5.
CTCAGT: the binding signal is 1.35 with ELF3 and 1.08 with ETV6.
For TCTGAG the same measures were 0.884 and 0.871.
Take ACGAAG: the values for the binding signal with ELF3 and with ETV6 were 0.883 and 0.932, respectively.
